# Results of single-concentration screens

Amino acid sequences for entries named in this document (tags omitted). Residues count along the entry.
UniProt P9WPC5, whole entry: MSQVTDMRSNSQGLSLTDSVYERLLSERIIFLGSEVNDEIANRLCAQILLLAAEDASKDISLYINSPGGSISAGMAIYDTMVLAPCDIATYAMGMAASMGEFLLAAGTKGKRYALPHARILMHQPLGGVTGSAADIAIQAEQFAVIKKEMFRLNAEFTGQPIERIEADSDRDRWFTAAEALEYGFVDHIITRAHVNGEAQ
UniProt P9WPC3, whole entry partner: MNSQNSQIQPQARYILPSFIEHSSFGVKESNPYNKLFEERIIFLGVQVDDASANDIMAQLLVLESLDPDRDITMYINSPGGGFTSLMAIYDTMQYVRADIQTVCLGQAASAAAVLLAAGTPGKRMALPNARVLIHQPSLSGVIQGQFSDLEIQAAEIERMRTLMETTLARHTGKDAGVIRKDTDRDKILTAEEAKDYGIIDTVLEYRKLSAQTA
UniProt Q4DA54, 1-478: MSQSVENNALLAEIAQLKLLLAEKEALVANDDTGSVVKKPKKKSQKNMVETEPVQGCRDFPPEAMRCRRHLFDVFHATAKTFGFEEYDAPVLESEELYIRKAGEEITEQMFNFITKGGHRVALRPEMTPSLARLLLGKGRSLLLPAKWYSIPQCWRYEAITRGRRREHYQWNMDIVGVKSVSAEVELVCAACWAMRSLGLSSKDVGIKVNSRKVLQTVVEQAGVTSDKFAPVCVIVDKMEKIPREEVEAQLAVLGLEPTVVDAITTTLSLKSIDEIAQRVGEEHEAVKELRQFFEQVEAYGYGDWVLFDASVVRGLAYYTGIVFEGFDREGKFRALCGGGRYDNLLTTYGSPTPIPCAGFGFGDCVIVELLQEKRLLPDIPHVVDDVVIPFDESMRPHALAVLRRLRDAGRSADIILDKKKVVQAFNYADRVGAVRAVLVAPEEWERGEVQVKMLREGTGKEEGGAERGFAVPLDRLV
UniProt Q8IDJ8, 1-583: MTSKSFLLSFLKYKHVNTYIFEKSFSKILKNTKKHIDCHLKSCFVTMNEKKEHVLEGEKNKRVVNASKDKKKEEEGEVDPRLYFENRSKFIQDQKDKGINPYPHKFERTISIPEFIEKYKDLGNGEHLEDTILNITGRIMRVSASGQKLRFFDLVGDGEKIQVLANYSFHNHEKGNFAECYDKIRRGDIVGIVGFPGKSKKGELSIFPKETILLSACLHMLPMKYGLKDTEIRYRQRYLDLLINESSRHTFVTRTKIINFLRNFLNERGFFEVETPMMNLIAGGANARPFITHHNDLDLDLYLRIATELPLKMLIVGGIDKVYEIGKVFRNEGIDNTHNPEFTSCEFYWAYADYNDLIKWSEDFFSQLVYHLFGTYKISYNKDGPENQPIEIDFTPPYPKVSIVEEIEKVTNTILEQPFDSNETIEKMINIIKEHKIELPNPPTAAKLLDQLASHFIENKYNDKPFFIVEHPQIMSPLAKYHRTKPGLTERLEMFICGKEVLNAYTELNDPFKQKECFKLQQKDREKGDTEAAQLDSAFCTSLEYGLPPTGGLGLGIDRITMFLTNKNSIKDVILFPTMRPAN
UniProt P9WNZ1, whole entry: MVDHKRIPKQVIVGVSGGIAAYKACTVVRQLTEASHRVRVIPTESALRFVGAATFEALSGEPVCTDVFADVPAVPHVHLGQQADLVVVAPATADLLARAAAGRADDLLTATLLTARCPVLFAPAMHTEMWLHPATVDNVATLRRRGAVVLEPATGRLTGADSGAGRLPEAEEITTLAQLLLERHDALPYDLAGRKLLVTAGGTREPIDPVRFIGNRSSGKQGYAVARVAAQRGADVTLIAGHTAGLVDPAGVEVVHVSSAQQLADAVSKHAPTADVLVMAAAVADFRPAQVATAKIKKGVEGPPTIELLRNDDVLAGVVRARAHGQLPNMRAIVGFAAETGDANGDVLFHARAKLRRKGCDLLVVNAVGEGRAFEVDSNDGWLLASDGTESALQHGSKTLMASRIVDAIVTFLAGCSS
UniProt I6X8D2, whole entry: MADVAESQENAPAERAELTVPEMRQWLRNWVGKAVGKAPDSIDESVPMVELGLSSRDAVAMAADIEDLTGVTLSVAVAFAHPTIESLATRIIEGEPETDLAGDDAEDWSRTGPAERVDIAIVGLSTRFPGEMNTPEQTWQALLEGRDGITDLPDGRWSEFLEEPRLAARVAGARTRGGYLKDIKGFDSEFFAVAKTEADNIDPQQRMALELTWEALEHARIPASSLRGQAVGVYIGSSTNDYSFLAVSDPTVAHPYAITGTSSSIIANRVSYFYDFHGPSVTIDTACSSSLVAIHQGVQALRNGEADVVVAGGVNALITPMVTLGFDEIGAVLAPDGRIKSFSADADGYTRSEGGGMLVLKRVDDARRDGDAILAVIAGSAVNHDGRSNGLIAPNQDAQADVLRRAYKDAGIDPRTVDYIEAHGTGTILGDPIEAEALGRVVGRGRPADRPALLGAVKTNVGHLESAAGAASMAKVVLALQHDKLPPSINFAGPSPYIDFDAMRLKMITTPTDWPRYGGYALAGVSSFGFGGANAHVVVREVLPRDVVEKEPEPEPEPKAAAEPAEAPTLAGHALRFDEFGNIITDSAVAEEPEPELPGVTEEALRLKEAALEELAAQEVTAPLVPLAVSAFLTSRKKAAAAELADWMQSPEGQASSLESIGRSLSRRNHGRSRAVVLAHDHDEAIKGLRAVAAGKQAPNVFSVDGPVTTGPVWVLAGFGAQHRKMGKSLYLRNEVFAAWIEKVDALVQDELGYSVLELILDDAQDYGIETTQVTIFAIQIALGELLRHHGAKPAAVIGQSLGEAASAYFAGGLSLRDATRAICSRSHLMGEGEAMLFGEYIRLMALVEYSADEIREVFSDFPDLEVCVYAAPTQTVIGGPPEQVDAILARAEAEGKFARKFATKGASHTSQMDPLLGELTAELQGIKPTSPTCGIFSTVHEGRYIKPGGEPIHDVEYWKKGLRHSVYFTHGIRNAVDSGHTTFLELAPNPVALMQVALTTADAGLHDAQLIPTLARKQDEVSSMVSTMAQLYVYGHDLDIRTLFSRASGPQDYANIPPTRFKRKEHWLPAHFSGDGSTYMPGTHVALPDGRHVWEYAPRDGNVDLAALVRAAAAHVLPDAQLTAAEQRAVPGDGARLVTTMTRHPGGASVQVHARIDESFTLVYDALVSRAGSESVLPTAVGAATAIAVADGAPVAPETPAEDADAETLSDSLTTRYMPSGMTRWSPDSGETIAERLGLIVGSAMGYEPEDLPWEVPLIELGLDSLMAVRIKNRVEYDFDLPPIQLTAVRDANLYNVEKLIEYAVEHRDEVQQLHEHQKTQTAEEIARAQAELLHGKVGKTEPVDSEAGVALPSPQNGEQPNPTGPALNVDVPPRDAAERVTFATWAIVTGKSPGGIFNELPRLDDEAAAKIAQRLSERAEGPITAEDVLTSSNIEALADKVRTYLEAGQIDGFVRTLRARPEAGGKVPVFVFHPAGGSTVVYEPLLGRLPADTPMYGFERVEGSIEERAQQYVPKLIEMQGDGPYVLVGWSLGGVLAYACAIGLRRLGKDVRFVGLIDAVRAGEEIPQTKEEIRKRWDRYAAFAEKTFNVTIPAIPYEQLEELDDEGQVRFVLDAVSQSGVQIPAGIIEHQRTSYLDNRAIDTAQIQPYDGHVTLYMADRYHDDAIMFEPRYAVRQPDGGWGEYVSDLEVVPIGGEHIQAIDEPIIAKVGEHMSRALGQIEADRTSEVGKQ

A: 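Protease assay of ClpP1P2, read by the AMC dye that it sets free. Target: ClpP1P2, Mycobacterium tuberculosis (UniProt P9WPC5 and UniProt P9WPC3). Compounds at 50 µM. Higher reads as stronger inhibition, judged from the few compounds that gave an IC50. Most other retested compounds had strongly negative values. Size under these conditions: about 69,000 compounds, about 10 of them at 50% or above in at least one test.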
B: 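Histidine-tRNA ligase, Trypanosoma cruzi CL Brener (UniProt Q4DA54). Enzyme assay of histidyl-tRNA synthetase; the read-out is not stated. Concentration: 30 µM. The record gives no direction; compounds that gave an IC50 in retests scored well above the rest, so higher reads as stronger inhibition. Of about 69,000 compounds tested this way, about 31 (0.045%) reached 50% or more in at least one test.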
C: 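Lysine-tRNA ligase, Plasmodium falciparum 3D7 (UniProt Q8IDJ8). Enzyme assay of the cytosolic lysyl-tRNA synthetase in 384-well plates, read by luminescence. Tested at 30 µM. Direction is inferred from only a few compounds that gave an IC50; most scored high, so higher reads as stronger inhibition. Of about 69,000 compounds tested this way, about 49 (0.071%) reached 50% or more in at least one test.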
D: 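Enzyme assay of CoaBC with a phosphate dye (Biomol Green) read at 650 nm. Target: Coenzyme A biosynthesis protein CoaBC, Mycobacterium tuberculosis (UniProt P9WNZ1). Concentration: 30 µM. Direction is inferred from only a few compounds that gave an IC50; most scored high, so higher reads as stronger inhibition. Most strong results did not repeat in a second test. Of about 67,000 compounds tested this way, about 40 (0.06%) reached 50% or more in at least one test.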
E: 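Cell assay of Leishmania donovani living inside macrophages; the read-out is not stated. Compounds at 30 µM. The record gives no direction; compounds that gave an IC50 in retests scored well above the rest, so higher reads as stronger inhibition. About 69,000 compounds were tested under these conditions; 1.5% (about 1,000) showed 50% or more at least once.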
F: 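Enzyme assay of the thioesterase domain of polyketide synthase 13; the read-out is not stated. Target: Polyketide synthase Pks13, Mycobacterium tuberculosis (UniProt I6X8D2). Compounds at 30 µM. Higher reads as stronger inhibition (inferred from which compounds were picked for retests). About 67,000 compounds were tested under these conditions; 0.46% (about 300) showed 50% or more at least once.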

Values are the deposited “Percent Effect”, in %. The record does not define 0% and 100%; most values in the screen are far below 50% and negative numbers occur (in some assays of this library far below -100). The compounds are a random part of those screened. Two or more numbers in one place are separate tests of the same structure; such repeats can differ widely. A dash means the value is not listed here; it may have been measured.

Compound	A	B	C	D	E	F
COCc1ncc(CN2CCC(Oc3ccccc3OC)CC2)cn1	-21.95%	2.479%	4.575%	-7.895%	5.516%	-4.794%
CCc1nc(CN2CCCC(NCc3cc(C)no3)C2)no1 (centres unmarked)	8.203%	3.396%	4.303%	-0.2564%	19.42%	-10.91%
Cn1nc(CNC(=O)C2CCCCC2)cc1C1CC1	-4.942%	3.518%	-3.384%	-2.527%	-37.82%	31.94%
O=S(=O)(C1CC1)N1CC[C@H](OCC2CC2)[C@@H]1Cc1ccncc1	-11.74%	1.149%	5.544%	4.277%	6.237%	-7.763%
Cc1nc(CCCNC(=O)C2CC(=O)N(C(C)(C)C)C2)sc1C (centres unmarked)	-2.937%	3.306%	8.77%	9.247%	10.12%	-13.44%
O=C(O)C(F)(F)F.[H][C@@]12CCN(c3ncccn3)[C@]1([H])CC[C@H](C(=O)NCc1cccs1)O2	-	-	-	-	4.454%	-
COCCc1noc(-c2ccc(-c3cc[nH]n3)nc2)n1	-5.391%	10.5%	1.997%	12.81%	20.02%	-16.83%
CNc1ncc2c(n1)CN(CCc1ccccc1)C2=O	-17.38%	5.804%	8.722%	7.398%	3.255%	-20.12%
O=C(c1ccsc1)N1CCC(Nc2cccnn2)CC1	-20.06%	4.571%	2.241%	3.823%	17.76%	-7.739%
Cc1c[nH]nc1C1CCCN1Cc1nccn1C (centres unmarked)	-62.78%	0.2857%	0.3985%	5.708%	-	-5.816%
NC(=O)C1CCN(C(=O)c2cc(Br)ccc2-n2cnnn2)CC1	-6.327%	4%	-4.427%	-5.085%	18.94%	-11.3%
Cc1nc(C(=O)N2CC(C)Sc3ccccc32)cs1 (centres unmarked)	3.601%	-32.77%	7.849%	7.258%	13.38%	4.249%
Nc1nccc(C2CCCCN2Cc2cccc(F)c2)n1 (centres unmarked)	-8.584%	1.521%	-1.079%	2.349%	3.101%	6.457%
CCN1CCN(C(=O)C2CCCc3[nH]ncc32)CC1 (centres unmarked)	1.062%	5.291%	2.616%	4.931%	9.54%	-16.29%
O=c1c2cccnc2cnn1CC(O)c1cccc(Cl)c1 (centres unmarked)	-5.406%	0.5291%	-1.578%	4.481%	-6.493%	10.64%
Cc1nn(C)c(C)c1NC(=O)c1cccc(CN2CCS(=O)(=O)CC2)c1	2.227%	5.941%	5.998%	2.542%	17.24%	-11.39%
Cc1cc(C(=O)N2CCCC2)ccc1NCCOCC(F)(F)F	17.17%	-0.8403%	3.144%	2.016%	12.27%	-
CS(=O)(=O)N1CCN(C(=O)c2ccco2)[C@H]2CS(=O)(=O)C[C@H]21	13.26%	-2.564%	-7.557%	-0.9938%	-	-20.75%
Cc1cc(C)n(CC2CCCN2C(=O)CCc2nccs2)n1 (centres unmarked)	-36.28%	1.775%	-0.1353%	1.648%	10.26%	-12.34%
Cc1nc(C2CCCN2CCOCC2CC2)no1 (centres unmarked)	11.86%	12.44%	1.941%	2.384%	-50.93%	-1.135%
NC(=O)NC(=O)CCN(Cc1ccccc1)CC1CCOCC1	-15.28%	1.02%	0.5388%	1.818%	-55.67%	-9.789%
CCNc1cc2c(nn1)CCN(C(=O)CC1CCCC1)C2	-25.64%	9.714%	-0.1447%	1.575%	18.6%	-19.02%
COCCN1CC2(CCN(C(=O)c3ccno3)CC2)c2ccccc21.O=C(O)C(F)(F)F	-	-	-	-	-4.1%	-
CC(C)Oc1ccc(CN2CCCC(N3CCOCC3)C2)cc1CO (centres unmarked)	-7.968%	2.97%	1.997%	-0.1631%	-20.17%	10.89%
Cc1csc(N2CCCN(C(=O)C(C(C)C)n3cncn3)CC2)n1 (centres unmarked)	-5.769%	1.916%	1.171%	4.384%	5.53%	1.666%
Cc1ncnc2c1CCN(Cc1cccs1)CC2	10.95%	4.865%	-2.112%	-1.65%	-	0.1657%
COc1cc(CN(C)C(=O)NCCC2CCCO2)ccc1SC (centres unmarked)	-1.97%	1.604%	10.3%	-0.6211%	37.92%	-15.4%
CCC(NS(C)(=O)=O)c1ccccc1C (centres unmarked)	-0.395%	-0.6024%	0.1626%	-0.8537%	12.82%	-6.56%
CC(C)NC(=O)N1CCC(c2nccn2C(C)C)CC1	-8.947%	1.508%	2.169%	-3.498%	-19.85%	-13.83%
COc1cc(CN(CCCN(C)C)Cc2ccccn2)cc2c1OCO2	1.539%	15.56%	1.963%	-0.4843%	-	-2.253%
[H][C@]12CN(CC3CCC3)C[C@@]1(C(=O)O)CN(C(=O)c1cnccc1C)C2	-	-	-	-	-2.773%	-
Cc1nc(C)n(CC2CCCN(CCOc3ccc(F)cc3)C2)n1 (centres unmarked)	-11.62%	2.006%	-0.4684%	-9.565%	31.57%	-14.89%
CCC(C)S(=O)(=O)N1CCc2nc(C3CCNCC3)ncc2C1.Cl (centres unmarked)	-	-	-	-	-8.964% and 2.716%	-
O=C(c1cc(C2CCCC2)no1)N1CCCCC1	-7.908%	4.663%	-2.643%	17.45%	-36.05%	2.599%
Cc1ccc(CNCc2c[nH]nc2C(C)(C)C)c(OC2CCOC2)c1 (centres unmarked)	-2.68%	0.5236%	-2.061%	-23.34%	10.69%	-48.03%
COC(=O)CNC(=O)CSCc1nc(O)c2cc(C(C)C)sc2n1	-2.354%	1.639%	2.251%	2.826%	-30.28%	-45.55%
CC(C)S(=O)(=O)N1CCCC(c2nccn2Cc2cccnc2)C1 (centres unmarked)	-7.041%	2.717%	5.441%	2.479%	-8.547%	-36.93%
O=c1c2cccnc2cnn1CC(O)c1ccc(F)c(F)c1 (centres unmarked)	-1.317%	4.762%	4.875%	7.332%	-5.942%	0.918%

From ChEMBL document CHEMBL3988442, “University of Dundee, Small-Polar-MMV Screening Library” (2021).